Values from PubChem BioAssay AID493246 (Drosophila RNAi Screening Center, 2011)
Assay: 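Genes fly cells need to grow and stay alive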 (primary screen). Cell system: Drosophila Kc and S2R+ cells. Reagents: long dsRNA against Drosophila genes. Read-out: 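Raw, unnormalised count of remaining cells in each well; per-plate z-scores of cell number underlie the calls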. Scale: Kc cell number and S2R+ cell number: higher = more cells remaining. Call rule: 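Counted as a hit if cell number falls by a z-score of at least 3 within its plate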.
In all, the deposit lists about 21,000 reagents; below is a random part of those with a known target gene and a result. Over the whole deposit, 429 (2%) were called active. 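Values are raw and not normalised between plates; calls rest on per-plate z-scores that were not deposited.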 A number with no mark means an inactive call. Not given: the amount of reagent, the time to read-out.

Against CG11060 [DRSC06029], the values are Kc cell number, rep 1 = 1.48e6; Kc cell number, rep 2 = 1.50e6; S2R+ cell number, rep 1 = 1.19e6; S2R+ cell number, rep 2 = 1.27e6.
santa-maria [DRSC00994] scored Kc cell number, rep 1 = 1.51e6; Kc cell number, rep 2 = 1.54e6; S2R+ cell number, rep 1 = 9.99e5; S2R+ cell number, rep 2 = 1.12e6.
Depletion of santa-maria [DRSC02180] came out at: Kc cell number, rep 1 = 1.26e6; Kc cell number, rep 2 = 1.33e6; S2R+ cell number, rep 1 = 6.24e5; S2R+ cell number, rep 2 = 8.32e5.
After knock-down of CG6184 [DRSC15986], the screen gave Kc cell number, rep 1 = 1.33e6; Kc cell number, rep 2 = 1.32e6; S2R+ cell number, rep 1 = 1.03e6; S2R+ cell number, rep 2 = 1.19e6.
Usp10 [DRSC08282] gave Kc cell number, rep 1 = 1.34e6; Kc cell number, rep 2 = 1.37e6; S2R+ cell number, rep 1 = 1.13e6; S2R+ cell number, rep 2 = 1.11e6.
Against Usp10 [DRSC08373], the entry reads Kc cell number, rep 1 = 1.56e6; Kc cell number, rep 2 = 1.33e6; S2R+ cell number, rep 1 = 9.94e5; S2R+ cell number, rep 2 = 1.20e6.
ScsbetaA [DRSC14446] showed Kc cell number, rep 1 = 1.41e6; Kc cell number, rep 2 = 1.48e6; S2R+ cell number, rep 1 = 1.25e6; S2R+ cell number, rep 2 = 1.29e6.
ND-20L [DRSC15414] gave Kc cell number, rep 1 = 1.59e6; Kc cell number, rep 2 = 1.62e6; S2R+ cell number, rep 1 = 1.01e6; S2R+ cell number, rep 2 = 1.14e6.
Dis3l2 [DRSC08496] scored Kc cell number, rep 1 = 1.32e6; Kc cell number, rep 2 = 1.36e6; S2R+ cell number, rep 1 = 1.28e6; S2R+ cell number, rep 2 = 1.24e6.
After knock-down of CG15695 [DRSC15117] the results were Kc cell number, rep 1 = 1.37e6; Kc cell number, rep 2 = 1.49e6; S2R+ cell number, rep 1 = 1.02e6; S2R+ cell number, rep 2 = 1.03e6.

Ordered by “Kc cell number, rep 2” (high to low): 3 of the entries above.
ND-20L [DRSC15414]: Kc cell number, rep 1 = 1.59e6; Kc cell number, rep 2 = 1.62e6; S2R+ cell number, rep 1 = 1.01e6; S2R+ cell number, rep 2 = 1.14e6
CG15695 [DRSC15117]: Kc cell number, rep 1 = 1.37e6; Kc cell number, rep 2 = 1.49e6; S2R+ cell number, rep 1 = 1.02e6; S2R+ cell number, rep 2 = 1.03e6
Dis3l2 [DRSC08496]: Kc cell number, rep 1 = 1.32e6; Kc cell number, rep 2 = 1.36e6; S2R+ cell number, rep 1 = 1.28e6; S2R+ cell number, rep 2 = 1.24e6

Further reagents follow:
Depletion of bou [DRSC17924] resulted in: Kc cell number, rep 1 = 1.44e6; Kc cell number, rep 2 = 1.47e6; S2R+ cell number, rep 1 = 1.06e6; S2R+ cell number, rep 2 = 1.15e6.
CG4520 [DRSC15590] scored Kc cell number, rep 1 = 1.32e6; Kc cell number, rep 2 = 1.41e6; S2R+ cell number, rep 1 = 1.16e6; S2R+ cell number, rep 2 = 1.34e6.
For mRpL46 [DRSC08391] the deposit lists Kc cell number, rep 1 = 1.54e6; Kc cell number, rep 2 = 1.54e6; S2R+ cell number, rep 1 = 8.20e5; S2R+ cell number, rep 2 = 1.06e6.
Against CG8564 [DRSC10997], the entry reads Kc cell number, rep 1 = 1.36e6; Kc cell number, rep 2 = 1.44e6; S2R+ cell number, rep 1 = 1.24e6; S2R+ cell number, rep 2 = 1.21e6.
With knock-down of CG31051 [DRSC15034] the results were Kc cell number, rep 1 = 5.28e5; S2R+ cell number, rep 1 = 1.00e6.
After knock-down of Rpt3 [DRSC20283] the results were Kc cell number, rep 1 = 9.13e5 (active); Kc cell number, rep 2 = 1.04e6; S2R+ cell number, rep 1 = 6.36e5; S2R+ cell number, rep 2 = 7.91e5.
After knock-down of CG14234 [DRSC19317], the record shows Kc cell number, rep 1 = 1.31e6; Kc cell number, rep 2 = 1.80e6; S2R+ cell number, rep 1 = 1.16e6; S2R+ cell number, rep 2 = 1.28e6.
Against CG14234 [DRSC19589], the entry reads Kc cell number, rep 1 = 1.53e6; Kc cell number, rep 2 = 1.55e6; S2R+ cell number, rep 1 = 1.04e6; S2R+ cell number, rep 2 = 1.19e6.
Against CG14247 [DRSC14742], the values are Kc cell number, rep 1 = 1.53e6; Kc cell number, rep 2 = 1.54e6; S2R+ cell number, rep 1 = 1.04e6; S2R+ cell number, rep 2 = 1.15e6.
Silencing of CG13896 [DRSC08366] came out at: Kc cell number, rep 1 = 1.21e6; Kc cell number, rep 2 = 1.47e6; S2R+ cell number, rep 1 = 1.12e6; S2R+ cell number, rep 2 = 1.50e6.
comm2 [DRSC09881] scored Kc cell number, rep 1 = 1.49e6; Kc cell number, rep 2 = 1.49e6; S2R+ cell number, rep 1 = 1.16e6; S2R+ cell number, rep 2 = 1.34e6.
For comm2 [DRSC10877], the entry reads Kc cell number, rep 1 = 1.29e6; Kc cell number, rep 2 = 1.54e6; S2R+ cell number, rep 1 = 1.32e6; S2R+ cell number, rep 2 = 1.44e6.
